The source of these data is patent publication US5914235A (Eli Lilly and Company, priority 1997, dated 1999).

Like-named read-outs stand apart in the source and are kept apart here.

This data set deals with I2 binding sites.

In the case of `c1ccc2oc(C3=NCCN3)cc2c1` [[^3 H]BFI, 2-(2-benzofuranyl)-2-imidazoline], the “[^3 H]BFI bound in human kidney” value is on record as 772±96 fmol/mg protein (absence of TCP) and 6741±714 fmol/mg protein (presence of 1 μM TCP).
